Laboratory results: US6416752B1, “Termite bait composition and method” (Whitmire Micro-Gen Research Laboratories, Inc., priority 2001, dated 2002)

Test system: Reticulitermes virginicus
Assay: standard choice box test of termite bait compositions with killing agents
Type: in vivo
Conditions: bait composition in microcrystalline cellulose powder
Description: The termite bait active ingredients or killing agents diflubenzuron, emamectin benzoate and thiamethoxam were tested for their efficacy. The termite species tested was Reticulitermes virginicus. The methodology employed was the standard “choice box” test used in Example 1 in which termites were released into a central chamber with untreated wood. The central chamber was connected, using Tygon tubing (2 mm I D), with peripheral feeding chambers containing a termite bait composition of the invention (microcrystalline cellulose powder having an average particle size of 20 micrometers and a termite killing agent) or untreated pine wood. Each replicate was given the choice of one gram of the treated cellulose powder or three blocks (1 cm) of untreated pine wood. At the end of 25 or 37 days, the number of live termites was counted. At the same time, the amount of pine wood or termite bait composition consumed was measured. The treatments were replicated two times.

Compound	way of killing termites
O=C(NC(=O)c1c(F)cccc1F)Nc1ccc(Cl)cc1 [Dimilin, diflubenzuron]	killed termites by ingestion
CN1COCN(Cc2cnc(Cl)s2)/C1=N\[N+](=O)[O-] [Thiamethoxam, thiamethoxam]	killed termites by contact
emamectin benzoate	killed termites by contact
